# Data published in the supplement of paper PMC8728848.
# This is one part of the list.
# B1: YghJ (Escherichia coli), E3PJ90 (protein)
# chain: MNKKFKYKKSLLAAILSATLLAGCDGGGSGSSSDTPPVDSGTGSLPEVKPDPTPNPEPTPEPTPDPEPTPEPIPDPEPTPEPEPEPVPTKTGYLTLGGSQRVTGATCNGESSDGFTFKPGEDVTCVAGNTTIATFNTQSEAARSLRAVEKVSFSLEDAQELAGSDDKKSNAVSLVTSSNSCPANTEQVCLTFSSVIESKRFDSLYKQIDLAPEEFKKLVNEEVENNAATDKAPSTHTSPVVPVTTPGTKPDLNASFVSANAEQFYQYQPTEIILSEGRLVDSQGYGVAGVNYYTNSGRGVTGENGEFSFSWGEAISFGIDTFELGSVRGNKSTIALTELGDEVRGANIDQLIHRYSTTGQNNTRVVPDDVRKVFAEYPNVINEIINLSLSNGATLGEGEQVVNLPNEFIEQFNTGQAKEIDTAICAKTDGCNEARWFSLTTRNVNDGQIQGVINKLWGVDTNYKSVSKFHVFHDSTNFYGSTGNARGQAVVNISNAAFPILMARNDKNYWLAFGEKRAWDKNELAYITEAPSIVRPENVTRETASFNLPFISLGQVGDGKLMVIGNPHYNSILRCPNGYSWNGGVNKDGQCTLNSDPDDMKNFMENVLRYLSNDRWLPDAKSSMTVGTNLETVYFKKHGQVLGNSAPFAFHKDFTGITVKPMTSYGNLNPDEVPLLILNGFEYVTQWGSDPYSIPLRADTSKPKLTQQDVTDLIAYMNKGGSVLIMENVMSNLKEESASGFVRLLDAAGLSMALNKSVVNNDPQGYPDRVRQRRSTPIWVYERYPAVDGKPPYTIDDTTKEVIWKYQQENKPDDKPKLEVASWQEEVEGKQVTQFAFIDEADHKTPESLAAAKQRILDAFPGLEVCKDSDYHYEVNCLEYRPGTDVPVTGGMYVPQYTQLDLSADTAKAMLQAADLGTNIQRLYQHELYFRTNGRQGERLNSVDLERLYQNMSVWLWNETKYRYEEGKEDELGFKTFTEFLNCYTNNAYVGTQCSAELKKSLIDNKMIYGEESSKAGMMNPSYPLNYMEKPLTRLMLGRSWWDLNIKVDVEKYPGVVNTNGETVTQNINLYSAPTKWFAGNMQSTGLWAPAQQEVSIESKSTVPVTVTVALADDLTGREKHEVSLNRPPRVTKTYDLKANDKVTFKVPYGGLIYIKGDSKEVQSADFTFTGVVKAPFYKDGKWQHDLNSPAPLGELESASFVYTTPKKNLNASNYTGGLEQFANDLDTFASSMNDFYGRDSEDGKHRMFTYKNLPGHKHRFANDVQISIGDAHSGYPVMNSSFSPNSTTLPTTPLNDWLIWHEVGHNAAETPLTVPGATEVANNVLALYMQDRYLGKMNRVADDITVAPEYLEESNGQAWARGGAGDRLLMYAQLKEWAEKNFDIKKWYPDGTPLPEFYSEREGMKGWNLFQLMHRKARGDEVSNDKFGGKNYCAESNGNAADTLMLCASWVAQTDLSEFFKKWNPGANAYQLPGASEMSFEGGVSQSAYNTLASLDLPKPEQGPETINQVTEHKMSAE
# Assays:
# Experiment in all cases: glycan array binding signal (z-score within array); higher = stronger binding
# Details in all cases: glycan notation: IUPAC condensed, linker removed
# [1] = biological target: Gal(a1-3)Gal(b1-4)GlcNAc(b1-2)Man
# Outline: (§1)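 From the Consortium for Functional Glycomics database, 3228 arrays were curated, keeping only those whose protein sequence was available. Binding is given as a within-array Z-score averaged across arrays sharing a protein sequence and across linkers. Negative Z-scores can be read as non-binding.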
# [2] = biological target: Gal(a1-3)Gal(b1-4)GlcNAc(b1-2)Man(a1-3)[Gal(a1-3)Gal(b1-4)GlcNAc(b1-2)Man(a1-6)]Man(b1-4)GlcNAc(b1-4)GlcNAc
# Outline: as §1
# [3] = biological target: Gal(a1-3)Gal(b1-4)GlcNAc(b1-3)GalNAc
# Outline: as §1
# [4] = biological target: Gal(a1-3)Gal(b1-4)GlcNAc(b1-6)GalNAc
# Outline: as §1
# [5] = biological target: Gal(a1-3)Gal(b1-4)[Fuc(a1-3)]GlcNAc
# Outline: as §1
# [6] = biological target: Gal(a1-3)Gal(b1-4)[Fuc(a1-3)]GlcNAc(b1-2)Man(a1-3)[Gal(a1-3)Gal(b1-4)[Fuc(a1-3)]GlcNAc(b1-2)Man(a1-6)]Man(b1-4)GlcNAc(b1-4)GlcNAc
# Outline: as §1
# [7] = biological target: Gal(a1-3)GalNAc
# Outline: as §1
# [8] = biological target: Gal(a1-3)[Gal(a1-4)]Gal(b1-4)GlcNAc
# Outline: as §1
# [9] = biological target: Gal(a1-4)Gal(b1-3)GlcNAc(b1-2)Man(a1-3)[Gal(a1-4)Gal(b1-3)GlcNAc(b1-2)Man(a1-6)]Man(b1-4)GlcNAc(b1-4)GlcNAc
# Outline: as §1
# [10] = biological target: Gal(a1-4)Gal(b1-4)Glc
# Outline: as §1
# [11] = biological target: Gal(a1-4)Gal(b1-4)GlcNAc
# Outline: as §1
# [12] = biological target: Gal(a1-4)Gal(b1-4)GlcNAc(b1-2)Man(a1-3)[Gal(a1-4)Gal(b1-4)GlcNAc(b1-2)Man(a1-6)]Man(b1-4)GlcNAc(b1-4)GlcNAc
# Outline: as §1
# [13] = biological target: Gal(a1-4)Gal(b1-4)GlcNAc(b1-3)Gal(b1-4)Glc
# Outline: as §1
# [14] = biological target: Gal(a1-4)GlcNAc
# Outline: as §1
# [15] = biological target: Gal(a1-6)Glc
# Outline: as §1
# [16] = biological target: Gal(b1-2)Gal
# Outline: as §1
# [17] = biological target: Gal(b1-3)Gal
# Outline: as §1
# [18] = biological target: Gal(b1-3)Gal(b1-4)GlcNAc
# Outline: as §1
# [19] = biological target: Gal(b1-3)GalNAc
# Outline: as §1
# [20] = biological target: Gal(b1-3)GalNAc(a1-3)[Fuc(a1-2)]Gal(b1-4)Glc
# Outline: as §1
# [21] = biological target: Gal(b1-3)GalNAc(a1-3)[Fuc(a1-2)]Gal(b1-4)GlcNAc
# Outline: as §1
# [22] = biological target: Gal(b1-3)GalNAc(b1-3)Gal
# Outline: as §1
# [23] = biological target: Gal(b1-3)GalNAc(b1-3)Gal(a1-4)Gal(b1-4)Glc
# Outline: as §1
# [24] = biological target: Gal(b1-3)GalNAc(b1-4)Gal(b1-4)Glc
# Outline: as §1
# [25] = biological target: Gal(b1-3)GalNAc(b1-4)[Neu5Ac(a2-3)]Gal(b1-4)Glc
# Outline: as §1
# [26] = biological target: Gal(b1-3)GlcNAc
# Outline: as §1
# [27] = biological target: Gal(b1-3)GlcNAc(a1-3)Gal(b1-4)GlcNAc
# Outline: as §1
# [28] = biological target: Gal(b1-3)GlcNAc(a1-6)Gal(b1-4)GlcNAc
# Outline: as §1
# [29] = biological target: Gal(b1-3)GlcNAc(b1-2)Man
# Outline: as §1
# [30] = biological target: Gal(b1-3)GlcNAc(b1-2)Man(a1-3)[Gal(b1-3)GlcNAc(b1-2)Man(a1-6)]Man(b1-4)GlcNAc(b1-4)GlcNAc
# Outline: as §1
# [31] = biological target: Gal(b1-3)GlcNAc(b1-2)Man(a1-3)[Gal(b1-3)GlcNAc(b1-2)Man(a1-6)]Man(b1-4)GlcNAc(b1-4)[Fuc(a1-6)]GlcNAc
# Outline: as §1
# [32] = biological target: Gal(b1-3)GlcNAc(b1-2)Man(a1-3)[GlcNAc(b1-4)][Gal(b1-3)GlcNAc(b1-2)Man(a1-6)]Man(b1-4)GlcNAc(b1-4)GlcNAc
# Outline: as §1
# [33] = biological target: Gal(b1-3)GlcNAc(b1-2)[Gal(b1-3)GlcNAc(b1-6)]Man(a1-6)[Gal(b1-3)GlcNAc(b1-2)Man(a1-3)]Man(b1-4)GlcNAc(b1-4)GlcNAc
# Outline: as §1
# [34] = biological target: Gal(b1-3)GlcNAc(b1-3)Gal(b1-3)GlcNAc
# Outline: as §1
# [35] = biological target: Gal(b1-3)GlcNAc(b1-3)Gal(b1-4)Glc
# Outline: as §1
# [36] = biological target: Gal(b1-3)GlcNAc(b1-3)Gal(b1-4)GlcNAc
# Outline: as §1
# [37] = biological target: Gal(b1-3)GlcNAc(b1-3)Gal(b1-4)GlcNAc(b1-2)Man(a1-3)[Gal(b1-3)GlcNAc(b1-3)Gal(b1-4)GlcNAc(b1-2)Man(a1-6)]Man(b1-4)GlcNAc(b1-4)GlcNAc
# Outline: as §1
# [38] = biological target: Gal(b1-3)GlcNAc(b1-3)Gal(b1-4)GlcNAc(b1-2)[Gal(b1-3)GlcNAc(b1-3)Gal(b1-4)GlcNAc(b1-6)]Man(a1-6)[Gal(b1-3)GlcNAc(b1-3)Gal(b1-4)GlcNAc(b1-2)Man(a1-3)]Man(b1-4)GlcNAc(b1-4)[Fuc(a1-6)]GlcNAc
# Outline: as §1
# [39] = biological target: Gal(b1-3)GlcNAc(b1-3)Gal(b1-4)GlcNAc(b1-3)Gal(b1-4)GlcNAc(b1-2)[Gal(b1-3)GlcNAc(b1-3)Gal(b1-4)GlcNAc(b1-3)Gal(b1-4)GlcNAc(b1-6)]Man(a1-6)[Gal(b1-3)GlcNAc(b1-3)Gal(b1-4)GlcNAc(b1-3)Gal(b1-4)GlcNAc(b1-2)Man(a1-3)]Man(b1-4)GlcNAc(b1-4)[Fuc(a1-6)]GlcNAc
# Outline: as §1
# [40] = biological target: Gal(b1-3)GlcNAc(b1-3)Gal(b1-4)GlcNAc(b1-6)[Gal(b1-3)GlcNAc(b1-3)]Gal(b1-4)Glc
# Outline: as §1
# [41] = biological target: Gal(b1-3)GlcNAc(b1-3)Gal(b1-4)[Fuc(a1-3)]GlcNAc
# Outline: as §1
# [42] = biological target: Gal(b1-3)GlcNAc(b1-3)Gal(b1-4)[Fuc(a1-3)]GlcNAc(b1-6)[Gal(b1-3)GlcNAc(b1-3)]Gal(b1-4)Glc
# Outline: as §1
# [43] = biological target: Gal(b1-3)GlcNAc(b1-3)GalNAc
# Outline: as §1
# [44] = biological target: Gal(b1-3)GlcNAc(b1-6)Gal(b1-4)GlcNAc
# Outline: as §1
# [45] = biological target: Gal(b1-3)GlcNAc(b1-6)GalNAc
# Outline: as §1
binder,measurement,setting,value
B1,glycan array binding signal (z-score),[1],0.24
same,glycan array binding signal (z-score),[2],0.637
same,glycan array binding signal (z-score),[3],-0.448
same,glycan array binding signal (z-score),[4],-0.131
same,glycan array binding signal (z-score),[5],-2.21
same,glycan array binding signal (z-score),[6],0.736
same,glycan array binding signal (z-score),[7],-0.152
same,glycan array binding signal (z-score),[8],-0.439
same,glycan array binding signal (z-score),[9],1.11
same,glycan array binding signal (z-score),[10],-0.047
same,glycan array binding signal (z-score),[11],-0.664
same,glycan array binding signal (z-score),[12],0.36
same,glycan array binding signal (z-score),[13],0.123
same,glycan array binding signal (z-score),[14],-1.26
same,glycan array binding signal (z-score),[15],-0.543
same,glycan array binding signal (z-score),[16],0.575
same,glycan array binding signal (z-score),[17],0.106
same,glycan array binding signal (z-score),[18],-0.841
same,glycan array binding signal (z-score),[19],-0.482
same,glycan array binding signal (z-score),[20],2.15
same,glycan array binding signal (z-score),[21],0.412
same,glycan array binding signal (z-score),[22],-0.908
same,glycan array binding signal (z-score),[23],0.195
same,glycan array binding signal (z-score),[24],-0.121
same,glycan array binding signal (z-score),[25],-0.276
same,glycan array binding signal (z-score),[26],0.17
same,glycan array binding signal (z-score),[27],-0.404
same,glycan array binding signal (z-score),[28],0.492
same,glycan array binding signal (z-score),[29],-0.517
same,glycan array binding signal (z-score),[30],-0.765
same,glycan array binding signal (z-score),[31],-0.233
same,glycan array binding signal (z-score),[32],1.32
same,glycan array binding signal (z-score),[33],0.998
same,glycan array binding signal (z-score),[34],-0.516
same,glycan array binding signal (z-score),[35],-0.585
same,glycan array binding signal (z-score),[36],-0.743
same,glycan array binding signal (z-score),[37],0.683
same,glycan array binding signal (z-score),[38],-0.296
same,glycan array binding signal (z-score),[39],0.402
same,glycan array binding signal (z-score),[40],1.23
same,glycan array binding signal (z-score),[41],2.4
same,glycan array binding signal (z-score),[42],-1.76
same,glycan array binding signal (z-score),[43],-0.313
same,glycan array binding signal (z-score),[44],-1.15
same,glycan array binding signal (z-score),[45],-1.75

# Fetched one by one from the list above (two):
binder,measurement,setting,value
B1,glycan array binding signal (z-score),[22],-0.908
same,glycan array binding signal (z-score),[27],-0.404
